Results are given in words; binding and its absence hold for the method and conditions named.
Target: methyl-cytosine binding domain of human MBD4 (amino acids 80-148) (human) (UniProt O95243)
Assay: NMR residual dipolar couplings; 2H,13C,15N-labelled MBD4MBD with 10% excess dsDNA, 10 mM NaPO4 pH 6.5, 1 mM DTT, 25 C, aligned with ~12 mg/ml pf1 bacteriophage; couplings fitted (PALES) to the crystal structure of mouse MBD4MBD bound to methylated DNA; both purified

Protein sequences, listed by entry. Tags and fused reporters are not part of them. Residues count along the entry.
UniProt O95243, residues 80-148: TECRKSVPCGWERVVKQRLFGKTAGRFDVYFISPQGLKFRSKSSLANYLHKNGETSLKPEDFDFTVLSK

binding: no binding (tested: 0.2–1 mM)
Substance: methyl-cytosine binding domain of human MBD4 (amino acids 80-148) (from UniProt O95243 80-148) (domain or fragment)

— article PMC4176167, “Solution structure and intramolecular exchange of methyl-cytosine binding domain protein 4 (MBD4) on DNA suggests a mechanism to scan for mCpG/TpG mismatches”
